From paper PMC8139508
No constants are given. Whether binding was seen depends on the method and setting. Binding seen in cells or lysates may run through a third protein. Here binding means that the protein was enriched with, or labelled near, the bait; the list need not be complete.

The chains behind the UniProt entries cited, without tags or fusion partners.
UniProt P03107: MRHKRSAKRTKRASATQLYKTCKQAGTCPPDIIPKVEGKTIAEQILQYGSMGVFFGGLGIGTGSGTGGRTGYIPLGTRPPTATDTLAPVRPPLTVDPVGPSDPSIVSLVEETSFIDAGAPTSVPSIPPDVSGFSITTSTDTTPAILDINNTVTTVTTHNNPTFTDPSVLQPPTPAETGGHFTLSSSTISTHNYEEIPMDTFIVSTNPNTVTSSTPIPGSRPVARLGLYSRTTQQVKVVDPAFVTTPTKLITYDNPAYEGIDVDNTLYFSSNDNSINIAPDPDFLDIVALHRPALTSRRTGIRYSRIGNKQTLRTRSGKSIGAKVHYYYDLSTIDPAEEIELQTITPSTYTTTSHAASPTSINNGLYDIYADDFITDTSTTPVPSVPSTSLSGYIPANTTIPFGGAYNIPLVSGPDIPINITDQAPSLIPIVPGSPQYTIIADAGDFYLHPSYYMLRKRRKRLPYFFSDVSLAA
UniProt Q96Q89: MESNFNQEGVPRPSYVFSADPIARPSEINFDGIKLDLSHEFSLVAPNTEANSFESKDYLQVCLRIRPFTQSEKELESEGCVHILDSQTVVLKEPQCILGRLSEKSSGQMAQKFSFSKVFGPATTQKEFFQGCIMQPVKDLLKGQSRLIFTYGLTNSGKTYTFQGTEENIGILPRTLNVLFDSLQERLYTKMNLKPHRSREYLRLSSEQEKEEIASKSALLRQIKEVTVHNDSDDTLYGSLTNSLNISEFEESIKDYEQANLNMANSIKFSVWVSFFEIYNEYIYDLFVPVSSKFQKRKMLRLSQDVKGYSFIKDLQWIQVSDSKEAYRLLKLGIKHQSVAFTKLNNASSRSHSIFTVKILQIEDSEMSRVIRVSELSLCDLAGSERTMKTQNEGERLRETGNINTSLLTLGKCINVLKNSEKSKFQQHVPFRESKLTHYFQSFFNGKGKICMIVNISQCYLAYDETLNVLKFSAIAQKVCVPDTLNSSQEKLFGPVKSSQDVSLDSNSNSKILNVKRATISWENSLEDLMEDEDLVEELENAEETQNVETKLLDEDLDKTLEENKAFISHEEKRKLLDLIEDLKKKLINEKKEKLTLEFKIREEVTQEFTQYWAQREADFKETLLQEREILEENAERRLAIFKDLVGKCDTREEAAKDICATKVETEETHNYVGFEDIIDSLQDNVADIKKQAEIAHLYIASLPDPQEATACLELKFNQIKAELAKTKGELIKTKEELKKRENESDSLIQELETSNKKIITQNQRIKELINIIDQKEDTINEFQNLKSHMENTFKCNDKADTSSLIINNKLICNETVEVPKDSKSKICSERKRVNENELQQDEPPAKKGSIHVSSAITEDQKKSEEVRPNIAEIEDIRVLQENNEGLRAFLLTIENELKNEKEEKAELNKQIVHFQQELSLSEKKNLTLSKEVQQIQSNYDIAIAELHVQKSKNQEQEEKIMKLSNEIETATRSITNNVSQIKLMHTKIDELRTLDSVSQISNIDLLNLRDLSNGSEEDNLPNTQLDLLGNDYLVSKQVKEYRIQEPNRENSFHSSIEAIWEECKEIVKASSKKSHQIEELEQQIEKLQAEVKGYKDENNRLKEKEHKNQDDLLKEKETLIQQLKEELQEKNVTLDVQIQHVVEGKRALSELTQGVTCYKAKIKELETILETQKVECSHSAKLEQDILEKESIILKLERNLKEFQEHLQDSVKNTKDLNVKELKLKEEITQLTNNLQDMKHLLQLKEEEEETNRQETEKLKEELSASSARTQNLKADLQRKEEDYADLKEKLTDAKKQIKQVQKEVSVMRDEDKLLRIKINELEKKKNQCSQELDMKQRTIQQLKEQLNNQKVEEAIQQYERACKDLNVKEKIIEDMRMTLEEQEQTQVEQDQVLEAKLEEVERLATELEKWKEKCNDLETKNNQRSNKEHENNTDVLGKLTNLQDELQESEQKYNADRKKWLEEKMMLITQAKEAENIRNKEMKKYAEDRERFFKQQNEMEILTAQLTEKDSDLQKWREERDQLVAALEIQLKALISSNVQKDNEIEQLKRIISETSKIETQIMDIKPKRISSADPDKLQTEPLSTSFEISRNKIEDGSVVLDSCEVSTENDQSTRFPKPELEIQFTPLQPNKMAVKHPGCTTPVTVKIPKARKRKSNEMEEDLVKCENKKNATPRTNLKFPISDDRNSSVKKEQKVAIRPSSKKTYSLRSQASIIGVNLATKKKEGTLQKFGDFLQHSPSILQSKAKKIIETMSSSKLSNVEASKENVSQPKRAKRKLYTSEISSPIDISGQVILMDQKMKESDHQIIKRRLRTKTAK

Molecular target: HPV16 minor capsid protein L2, wild type, 3xHA-tagged (L2-3xHA) (human papillomavirus type 16) (UniProt P03107)
Experiment: affinity purification with mass spectrometry; anti-HA immunoprecipitation from lysates of HEK293 cells expressing wild-type L2-3xHA or RTR313EEE L2-3xHA; SDS-PAGE, in-gel trypsin digest, LC-MS/MS, label-free quantification (MaxQuant); n = 3 each

kinesin KIF20B, endogenous (from UniProt Q96Q89 1-1820)
binding: binds
